Results deposited as PubChem BioAssay AID504784 (Drosophila RNAi Screening Center, 2011).
Purpose: 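Genome-wide knock-down for genes giving too much or too little stored lipid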 (primary screen). Cells: Drosophila Kc167 embryonic cells. Knock-down reagent: long dsRNA against Drosophila genes, about 250 ng dsRNA per well. Timing: 4 days. Challenge: cells fed 400 µM oleic acid bound to BSA. Measurement: 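Microscope images give a droplet-to-nucleus area ratio, taken as log and converted to a screen-wide B-score; higher values mean greater lipid storage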. Scale: droplet/nuclear area B-score: higher = more stored lipid (overstorage).
The deposit covers about 17,000 reagents; below is an unselected part of those with a known target gene and a result. 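Each column is one replicate's B-score; the combined score over replicates was not deposited, so single values may mislead.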 Names joined by + are all predicted targets of the reagent. Further read-outs or replicates are left out here. No sequences are given here.

CG40486 [DRSC20619] — droplet/nuclear area B-score, replicate 1 = 0.447
pad (poils au dos) [DRSC14227] — droplet/nuclear area B-score, replicate 1 = -0.0893
CG13313 [DRSC09984] — droplet/nuclear area B-score, replicate 1 = 1.24
CG13716 [DRSC08325] — droplet/nuclear area B-score, replicate 1 = 0.721
CG13716 [DRSC22815] — droplet/nuclear area B-score, replicate 1 = 3.48
c12.2 [DRSC18751] — droplet/nuclear area B-score, replicate 1 = -2.71
CG31189 [DRSC16198] — droplet/nuclear area B-score, replicate 1 = -0.0975
CG9356 [DRSC16476] — droplet/nuclear area B-score, replicate 1 = 0.275

Laid out differently: results already given.
gene,dsRNA,"droplet/nuclear area B-score, replicate 1"
CG13716,DRSC22815,3.48
c12.2,DRSC18751,-2.71

Further entries follow.
CG8149 [DRSC16391] — droplet/nuclear area B-score, replicate 1 = -0.223
CG2209 [DRSC19843] — droplet/nuclear area B-score, replicate 1 = -0.0195
CG31482 [DRSC12582] — droplet/nuclear area B-score, replicate 1 = 1.75
CG13196 [DRSC06321] — droplet/nuclear area B-score, replicate 1 = 1.18
RpS5a (Ribosomal protein S5a) [DRSC20282] — droplet/nuclear area B-score, replicate 1 = 2.42
hydra [DRSC20497] — droplet/nuclear area B-score, replicate 1 = 0.0562
RpL37-2 (Ribosomal protein L37-2) [DRSC04584] — droplet/nuclear area B-score, replicate 1 = 0.71
Cht7 + tRNA:Cys-GCA-1-4 + tRNA:Lys-CTT-1-13 [DRSC08021] — droplet/nuclear area B-score, replicate 1 = 1.42
